Consider eleven molecules from article PMC7876033.

Results are given in words; binding and its absence hold for the method and conditions named. Binding calls can cover weak binding; strength is not graded here. For some assays here: Binding seen in cells or lysates may run through a third protein.

To fix the notation:
B1: isopropylmalate isomerase (IPMI) small subunit LeuD2 (protein, UniProt Q9LYT7 1-253)
chain: MATSQQFLNPTLFKSLASSNKNSCTLCPSPFLQLKSASTIFNYKPLTSSSATIITRVAASSSDSGESITRETFHGLCFVLKDNIDTDQIIPAEYGTLIPSIPEDREKLGSFALNGLPKFYNERFVVPGEMKSKYSVIIGGDNFGCGSSREHAPVCLGAAGAKAVVAESYARIFFRNCVATGEIFPLESEVRICDECKTGDVVTIEHKEDGSSLLINHTTRKEYKLKPLGDAGPVIDAGGIFAYARKAGMIPSA
B2: methylthioalkylmalate synthase 3 (MAM3) (enzyme, UniProt Q9FN52 1-503)
chain: MASLLLTSSSMITTSCRSMVLRSGLPIGSSFPSLRLTRPYDKATLFVSCCSAESKKVATSATDLKPIMERRPEYIPNKLPHKNYVRVLDTTLRDGEQSPGAALTPPQKLEIARQLAKLRVDIMEVGFPVSSEEEFEAIKTIAKTVGNEVDEETGYVPVICGIARCKKRDIEATWEALKYAKRPRVMLFTSTSEIHMKYKLKKTKEEVIEMAVNSVKYAKSLGFKDIQFGCEDGGRTEKDFICKILGESIKAGATTVGFADTVGINMPQEFGELVAYVIENTPGADDIVFAIHCHNDLGVATANTISGICAGARQVEVTINGIGERSGNAPLEEVVMALKCRGESLMDGVYTKIDSRQIMATSKMVQEHTGMYVQPHKPIVGDNCFVHESGIHQDGILKNRSTYEILSPEDVGIVKSENSGIVLGKLSGRHAVKDRLKELGYEISDEKFNDIFSRYRELTKDKKRITDADLKALVVNGAEISSEKLNSKGINDLMSSPQISAVV
B3: methylthioalkylmalate synthase 1 (MAM1) (enzyme, UniProt Q9FG67 1-506)
chain: MASSLLTSSVMIPTTGSTVVGRSVLPFQSSLHSLRLTHSYKNPALFISCCSSVSKNAATSSTDLKPVVERWPEYIPNKLPDGNYVRVFDTTLRDGEQSPGGSLTPPQKLEIARQLAKLRVDIMEVGFPGSSEEELETIKTIAKTVGNEVDEETGYVPVICAIARCKHRDIEATWEALKYAKRPRILVFTSTSDIHMKYKLKKTQEEVIEMAVSSIRFAKSLGFNDIQFGCEDGGRSDKDFLCKILGEAIKAGVTVVTIGDTVGINMPHEYGELVTYLKANTPGIDDVVVAVHCHNDLGLATANSIAGIRAGARQVEVTINGIGERSGNASLEEVVMALKCRGAYVINGVYTKIDTRQIMATSKMVQEYTGLYVQAHKPIVGANCFVHESGIHQDGILKNRSTYEILSPEDIGIVKSQNSGLVLGKLSGRHAVKDRLKELGYELDDEKLNAVFSLFRDLTKNKKRITDADLKALVTSSDEISLEKLNGANGLKSNGYIPVPQVSSNV
B4: isopropylmalate isomerase (IPMI) small subunit LeuD3 (protein, UniProt Q9ZW85 1-251)
chain: MAASLQSANPTLSRTLASPNKPSSFATFRSPFLRFNSTSVASNFKPLVSREASSSFVTRSAAEPQERKTFHGLCYVVGDNIDTDQIIPAEFLTLVPSNPEEYEKLGSYALVGLPASYKERFVQPGEMKTKYSIIIGGENFGCGSSREHAPVCLGAAGAKAVVAQSYARIFFRNSVATGEVYPLDSEVRVCDECTTGDVATVELREGDSILINHTTGKEYKLKPIGDAGPVIDAGGIFAYARKAGMIPSAAA
B5: isopropylmalate isomerase (IPMI) small subunit LeuD1 (protein, UniProt Q9ZW84 1-256)
chain: MAYSLPTFPQALPCSSTKTSSSLATFRSPFLRFNGSTSLIPSSISITSRGTSSPTIIPRAAASESDSNEALANTTFHGLCYVLKDNIDTDQIIPAGAACTFPSNQQERDEIAAHALSGLPDFHKTRFIEPGENRSKYSIIIGGENFGCGSSREHAPVCLGAAGAKAIVAESYARIFFRNSVATGEVFPLESEVRVCEECKTGDTVTIELSDSGGLLTNHTTGKNYKLKSIGDAGPVIDAGGIFAYARMMGMIPSLA
B6: isopropylmalate dehydrogenase 3 (IPMDH3) (enzyme, UniProt Q9SA14 1-404)
chain: MAAFLQTNIRLEIIPGRYSSLTDHKFRAPYRIRCAAASPVKKRYNITLLPGDGIGPEVISVAKNVLQKAGFLQGLEFDFQEMPFGGAALDLVGVPLPEETSTAAKQSDAILLGAIGGYKWDKNEKHLRPEMGLLNIRRDLNVFANLRPATVLPQLVDASTLKKEVAQGVDMMIVRELTGGIYFGEPRGITINENGEEVGFNTEIYAAHEIDRIARVAFETARKRRGKLCSVDKANVLDASILWRKRVTALASEYPDVELSHMYVDNAAMQLVRDPKQFDTIVTNNIFGDILSDEASMITGSIGMLPSASLGESGPGLFEPIHGSAPDIAGQDKANPLATILSAAMLLKYGLGEEKAAKMIEDAVVDALNKGFRTGDIYSPGNKLVGCKEMGEEVLKSVDSKVPV
B7: isopropylmalate dehydrogenase 2 (IPMDH2) (enzyme, UniProt P93832 1-405)
chain: MAAALQTNIRTVKVPATFRAVSKQSLAPFRVRCAVASPGKKRYTITLLPGDGIGPEVVSIAKNVLQQAGSLEGVEFNFREMPIGGAALDLVGVPLPEETISAAKESDAVLLGAIGGYKWDNNEKHLRPEKGLLQIRAALKVFANLRPATVLPQLVDASTLKREVAEGVDLMVVRELTGGIYFGEPRGIKTNENGEEVGFNTEVYAAHEIDRIARVAFETARKRRGKLCSVDKANVLEASILWRKRVTALASEYPDVELSHMYVDNAAMQLVRDPKQFDTIVTNNIFGDILSDEASMITGSIGMLPSASLSDSGPGLFEPIHGSAPDIAGQDKANPLATILSAAMLLKYGLGEEKAAKRIEDAVLVALNNGFRTGDIYSAGTKLVGCKEMGEEVLKSVDSQVPASV
B8: isopropylmalate dehydrogenase 1 (IPMDH1) (enzyme, UniProt Q9FMT1 1-409)
chain: MAAFLQTNISLNAIKIVPGKYSSLTDHQFRAPYRIRCAAASPGKKRYNIALLPGDGIGPEVISVAKNVLQKAGSLEGLEFDFKEMPVGGAALDLVGVPLPEETFTAAKLSDAILLGAIGGYKWDKNEKHLRPEMALFYLRRDLKVFANLRPATVLPQLVDASTLKKEVAEGVDMMIVRELTGGIYFGEPRGITINENGEEVGVSTEIYAAHEIDRIARVAFETARKRRGKLCSVDKANVLDASILWRKRVTALASEYPDVELSHMYVDNAAMQLIRDPKQFDTIVTNNIFGDILSDEASMITGSIGMLPSASLGESGPGLFEPIHGSAPDIAGQDKANPLATILSAAMLLKYGLGEEKAAKRIEDAVVDALNKGFRTGDIYSPGNKLVGCKEMGEEVLKSVESKVPATV
B9: IPMDH2:CVen210 (enzyme, UniProt P93832 34-405)
chain: AVASPGKKRYTITLLPGDGIGPEVVSIAKNVLQQAGSLEGVEFNFREMPIGGAALDLVGVPLPEETISAAKESDAVLLGAIGGYKWDNNEKHLRPEKGLLQIRAALKVFANLRPATVLPQLVDASTLKREVAEGVDLMVVRELTGGIYFGEPRGIKTNENGEEVGFNTEVYAAHEIDRIARVAFETARKRRGKLCSVDKANVLEASILWRKRVTALASEYPDVELSHMYVDNAAMQLVRDPKQFDTIVTNNIFGDILSDEASMITGSIGMLPSASLSDSGPGLFEPIHGSAPDIAGQDKANPLATILSAAMLLKYGLGEEKAAKRIEDAVLVALNNGFRTGDIYSAGTKLVGCKEMGEEVLKSVDSQVPASV
B10: IPMDH1:CVen210 (enzyme, UniProt Q9FMT1 38-409)
chain: AAASPGKKRYNIALLPGDGIGPEVISVAKNVLQKAGSLEGLEFDFKEMPVGGAALDLVGVPLPEETFTAAKLSDAILLGAIGGYKWDKNEKHLRPEMALFYLRRDLKVFANLRPATVLPQLVDASTLKKEVAEGVDMMIVRELTGGIYFGEPRGITINENGEEVGVSTEIYAAHEIDRIARVAFETARKRRGKLCSVDKANVLDASILWRKRVTALASEYPDVELSHMYVDNAAMQLIRDPKQFDTIVTNNIFGDILSDEASMITGSIGMLPSASLGESGPGLFEPIHGSAPDIAGQDKANPLATILSAAMLLKYGLGEEKAAKRIEDAVVDALNKGFRTGDIYSPGNKLVGCKEMGEEVLKSVESKVPATV
B11: IPMDH3:CVen210 (enzyme, UniProt Q9SA14 35-404)
chain: AAASPVKKRYNITLLPGDGIGPEVISVAKNVLQKAGFLQGLEFDFQEMPFGGAALDLVGVPLPEETSTAAKQSDAILLGAIGGYKWDKNEKHLRPEMGLLNIRRDLNVFANLRPATVLPQLVDASTLKKEVAQGVDMMIVRELTGGIYFGEPRGITINENGEEVGFNTEIYAAHEIDRIARVAFETARKRRGKLCSVDKANVLDASILWRKRVTALASEYPDVELSHMYVDNAAMQLVRDPKQFDTIVTNNIFGDILSDEASMITGSIGMLPSASLGESGPGLFEPIHGSAPDIAGQDKANPLATILSAAMLLKYGLGEEKAAKMIEDAVVDALNKGFRTGDIYSPGNKLVGCKEMGEEVLKSVDSKVPV

The first experiment concerns the target isopropylmalate isomerase (IPMI) large subunit LeuC (Arabidopsis thaliana). The experiment is described as follows: two-hybrid; pair-wise; GAL4 DNA-binding domain (pPC97) and GAL4 activation domain (pPC86) fusions co-transformed into yeast strain CG1945; growth on SD/-Trp-Leu-His with 1 mM 3AT.
Take B1: the binding entry is given as “no binding”. The same measure, in the same setting: next, B2: “no binding”. For B3, the binding result is “no binding”. Take B4: the binding entry was “no binding”. As to B5, the binding result was “no binding”.

In the case of B6, the binding entry is “binds weakly”.

B7: the binding result is reported as “binds”. Same read-out and setting: next, B8: “binds”.

In another experiment the target is LeuC:NmVen210 (Arabidopsis thaliana). The experiment is described as follows: split reporter; BiFC, pDOE-mVenus210 system; Nicotiana benthamiana leaves agroinfiltrated at OD 0.4 and imaged at day 3.
For B9, the binding entry is “binds”. Still for that read-out and setting: the value for B10 was “binds”. On the same count and under the same terms, the value for B11 was “binds weakly”.
